No constants are given. Whether binding was seen depends on the method and setting. Binding seen in cells or lysates may run through a third protein. Some results given as binding are weak or reduced against the parent protein; the word gives no strength.
Biological target: N-myc downstream-regulated gene 1 (NDRG1), wild type, stably overexpressed in MIAPaCa-2 cells (UniProt Q92597)
Assay: co-IP

Sequences of proteins named here, by UniProt entry; tags and fusion partners are left off.
UniProt Q92597: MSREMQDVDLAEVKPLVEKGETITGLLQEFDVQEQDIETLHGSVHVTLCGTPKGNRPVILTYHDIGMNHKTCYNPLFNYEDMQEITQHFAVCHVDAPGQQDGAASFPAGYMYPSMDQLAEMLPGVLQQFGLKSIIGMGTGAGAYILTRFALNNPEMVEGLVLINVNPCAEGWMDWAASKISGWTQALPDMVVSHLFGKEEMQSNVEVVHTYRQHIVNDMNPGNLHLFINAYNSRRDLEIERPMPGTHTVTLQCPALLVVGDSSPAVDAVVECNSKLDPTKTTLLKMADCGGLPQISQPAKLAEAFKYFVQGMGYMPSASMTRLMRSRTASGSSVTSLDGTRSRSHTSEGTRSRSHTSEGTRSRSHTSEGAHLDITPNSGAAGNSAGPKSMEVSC
UniProt Q8WUM4: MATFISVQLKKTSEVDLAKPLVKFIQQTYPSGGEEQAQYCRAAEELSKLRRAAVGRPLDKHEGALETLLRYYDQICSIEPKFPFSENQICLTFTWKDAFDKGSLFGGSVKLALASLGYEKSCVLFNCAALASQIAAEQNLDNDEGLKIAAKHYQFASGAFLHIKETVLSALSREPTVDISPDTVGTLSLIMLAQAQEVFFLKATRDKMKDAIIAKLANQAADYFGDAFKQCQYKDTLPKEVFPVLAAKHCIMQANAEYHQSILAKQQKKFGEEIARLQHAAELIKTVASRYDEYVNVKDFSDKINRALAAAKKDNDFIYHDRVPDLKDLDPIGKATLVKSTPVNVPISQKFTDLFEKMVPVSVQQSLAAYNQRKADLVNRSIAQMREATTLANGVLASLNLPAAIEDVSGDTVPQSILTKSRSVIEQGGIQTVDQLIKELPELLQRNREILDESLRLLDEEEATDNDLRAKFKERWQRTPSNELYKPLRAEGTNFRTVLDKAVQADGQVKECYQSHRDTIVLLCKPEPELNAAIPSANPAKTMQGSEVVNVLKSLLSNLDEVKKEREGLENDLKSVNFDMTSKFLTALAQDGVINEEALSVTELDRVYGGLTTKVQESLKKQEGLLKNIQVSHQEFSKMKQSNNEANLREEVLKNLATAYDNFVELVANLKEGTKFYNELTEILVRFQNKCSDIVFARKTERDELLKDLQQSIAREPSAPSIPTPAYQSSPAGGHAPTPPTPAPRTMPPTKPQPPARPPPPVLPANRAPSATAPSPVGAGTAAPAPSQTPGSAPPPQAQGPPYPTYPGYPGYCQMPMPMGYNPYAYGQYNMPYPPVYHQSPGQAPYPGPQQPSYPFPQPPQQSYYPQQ

binding: binds
Substance: ALG-2-interacting protein X (ALIX) (from UniProt Q8WUM4 1-868)
